Measured values as given in the supplement of paper PMC10849652.
The list shows a part of the results.

Sequences of proteins named here, by UniProt entry; tags and fusion partners are left off. A change or cut given only in a name is not applied to a line headed by its entry.
UniProt O95905: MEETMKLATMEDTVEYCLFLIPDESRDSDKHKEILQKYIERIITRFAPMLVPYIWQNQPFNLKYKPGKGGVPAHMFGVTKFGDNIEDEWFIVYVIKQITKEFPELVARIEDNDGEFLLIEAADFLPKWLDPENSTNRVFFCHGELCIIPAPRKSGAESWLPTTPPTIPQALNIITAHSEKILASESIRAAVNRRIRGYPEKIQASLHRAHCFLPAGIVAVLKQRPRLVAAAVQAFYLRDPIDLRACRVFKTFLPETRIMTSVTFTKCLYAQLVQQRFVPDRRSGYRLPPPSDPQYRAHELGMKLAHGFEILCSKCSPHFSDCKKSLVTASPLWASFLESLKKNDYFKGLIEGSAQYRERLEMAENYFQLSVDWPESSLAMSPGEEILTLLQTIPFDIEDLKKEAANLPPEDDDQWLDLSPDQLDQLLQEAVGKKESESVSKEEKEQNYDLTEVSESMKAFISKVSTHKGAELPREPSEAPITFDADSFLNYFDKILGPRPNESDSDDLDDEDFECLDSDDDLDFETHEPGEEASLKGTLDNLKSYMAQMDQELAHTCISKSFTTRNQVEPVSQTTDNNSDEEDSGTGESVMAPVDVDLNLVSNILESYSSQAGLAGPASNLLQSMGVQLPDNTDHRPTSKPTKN
UniProt Q6UX65: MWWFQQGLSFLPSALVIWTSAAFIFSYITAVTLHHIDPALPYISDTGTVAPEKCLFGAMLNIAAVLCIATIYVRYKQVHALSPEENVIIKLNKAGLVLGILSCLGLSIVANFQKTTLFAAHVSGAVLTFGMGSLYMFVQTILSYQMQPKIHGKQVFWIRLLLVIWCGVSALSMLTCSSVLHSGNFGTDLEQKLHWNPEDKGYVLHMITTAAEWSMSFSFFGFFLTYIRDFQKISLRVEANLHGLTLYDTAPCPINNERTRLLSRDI
UniProt Q66K89: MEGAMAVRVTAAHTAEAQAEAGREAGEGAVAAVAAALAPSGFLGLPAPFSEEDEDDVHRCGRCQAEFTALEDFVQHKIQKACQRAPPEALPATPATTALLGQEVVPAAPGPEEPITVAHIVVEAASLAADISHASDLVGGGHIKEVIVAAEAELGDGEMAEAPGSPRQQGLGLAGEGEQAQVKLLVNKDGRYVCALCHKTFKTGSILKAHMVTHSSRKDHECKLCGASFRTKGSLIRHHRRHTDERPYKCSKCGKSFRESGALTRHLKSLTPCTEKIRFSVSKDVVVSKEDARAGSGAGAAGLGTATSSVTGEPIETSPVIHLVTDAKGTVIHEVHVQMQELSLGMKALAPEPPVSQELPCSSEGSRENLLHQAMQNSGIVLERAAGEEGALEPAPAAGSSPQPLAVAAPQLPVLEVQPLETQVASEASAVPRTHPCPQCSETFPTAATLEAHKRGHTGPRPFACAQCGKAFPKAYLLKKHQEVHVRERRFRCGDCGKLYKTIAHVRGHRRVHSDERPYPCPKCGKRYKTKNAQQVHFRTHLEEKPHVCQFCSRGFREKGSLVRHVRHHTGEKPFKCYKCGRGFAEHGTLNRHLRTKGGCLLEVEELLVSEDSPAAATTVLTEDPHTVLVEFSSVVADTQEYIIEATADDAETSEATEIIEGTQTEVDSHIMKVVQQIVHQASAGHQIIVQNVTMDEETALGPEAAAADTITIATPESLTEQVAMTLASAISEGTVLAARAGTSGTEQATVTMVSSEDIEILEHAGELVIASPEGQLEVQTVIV
UniProt Q56P03: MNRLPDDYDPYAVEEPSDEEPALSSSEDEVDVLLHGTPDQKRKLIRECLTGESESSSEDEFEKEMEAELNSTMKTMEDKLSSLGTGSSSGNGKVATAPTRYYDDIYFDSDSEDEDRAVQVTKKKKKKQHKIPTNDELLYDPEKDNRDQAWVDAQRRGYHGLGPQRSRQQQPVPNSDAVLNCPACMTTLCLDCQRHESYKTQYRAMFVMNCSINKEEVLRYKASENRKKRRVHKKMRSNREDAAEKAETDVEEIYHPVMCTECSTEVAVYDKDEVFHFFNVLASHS
UniProt Q5QJE6: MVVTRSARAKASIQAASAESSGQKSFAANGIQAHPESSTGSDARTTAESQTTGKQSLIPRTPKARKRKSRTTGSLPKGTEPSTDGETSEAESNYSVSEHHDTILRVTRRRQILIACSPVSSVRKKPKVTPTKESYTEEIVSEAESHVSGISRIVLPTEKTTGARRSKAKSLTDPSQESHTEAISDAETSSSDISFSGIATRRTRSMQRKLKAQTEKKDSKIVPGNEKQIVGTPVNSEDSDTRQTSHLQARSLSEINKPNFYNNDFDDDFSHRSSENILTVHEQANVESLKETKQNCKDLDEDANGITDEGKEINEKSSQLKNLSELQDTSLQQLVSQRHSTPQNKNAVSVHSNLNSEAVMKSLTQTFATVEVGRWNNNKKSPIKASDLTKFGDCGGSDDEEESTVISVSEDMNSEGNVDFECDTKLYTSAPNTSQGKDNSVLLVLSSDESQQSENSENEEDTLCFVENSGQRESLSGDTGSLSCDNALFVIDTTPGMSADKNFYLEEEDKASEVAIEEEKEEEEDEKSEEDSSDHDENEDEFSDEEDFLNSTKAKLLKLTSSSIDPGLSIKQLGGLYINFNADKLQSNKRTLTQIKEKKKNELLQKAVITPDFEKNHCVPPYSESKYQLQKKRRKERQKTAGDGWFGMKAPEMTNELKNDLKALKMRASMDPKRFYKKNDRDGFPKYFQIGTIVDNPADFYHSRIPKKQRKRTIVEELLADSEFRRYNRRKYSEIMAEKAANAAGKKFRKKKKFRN
UniProt Q86YN1: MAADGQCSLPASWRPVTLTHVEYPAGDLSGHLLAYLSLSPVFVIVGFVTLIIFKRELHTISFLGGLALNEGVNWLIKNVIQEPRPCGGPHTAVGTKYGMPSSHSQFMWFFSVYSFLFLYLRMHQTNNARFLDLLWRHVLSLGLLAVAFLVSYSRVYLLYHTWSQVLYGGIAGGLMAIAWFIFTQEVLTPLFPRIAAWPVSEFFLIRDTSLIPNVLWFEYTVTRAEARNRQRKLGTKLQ
UniProt Q9H410: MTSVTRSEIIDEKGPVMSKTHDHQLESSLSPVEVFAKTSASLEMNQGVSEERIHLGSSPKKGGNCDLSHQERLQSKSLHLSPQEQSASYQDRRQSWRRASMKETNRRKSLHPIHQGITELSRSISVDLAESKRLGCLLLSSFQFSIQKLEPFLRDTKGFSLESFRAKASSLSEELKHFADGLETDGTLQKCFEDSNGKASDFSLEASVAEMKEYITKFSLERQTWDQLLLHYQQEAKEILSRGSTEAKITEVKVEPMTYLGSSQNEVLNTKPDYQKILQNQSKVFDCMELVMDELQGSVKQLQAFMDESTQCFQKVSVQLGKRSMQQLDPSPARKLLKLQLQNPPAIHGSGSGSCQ
UniProt P63172, whole entry, looked up: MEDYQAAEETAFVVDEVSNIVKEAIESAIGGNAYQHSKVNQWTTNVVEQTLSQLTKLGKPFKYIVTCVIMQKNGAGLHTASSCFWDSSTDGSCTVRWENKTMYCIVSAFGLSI
UniProt O00429, whole entry, looked up: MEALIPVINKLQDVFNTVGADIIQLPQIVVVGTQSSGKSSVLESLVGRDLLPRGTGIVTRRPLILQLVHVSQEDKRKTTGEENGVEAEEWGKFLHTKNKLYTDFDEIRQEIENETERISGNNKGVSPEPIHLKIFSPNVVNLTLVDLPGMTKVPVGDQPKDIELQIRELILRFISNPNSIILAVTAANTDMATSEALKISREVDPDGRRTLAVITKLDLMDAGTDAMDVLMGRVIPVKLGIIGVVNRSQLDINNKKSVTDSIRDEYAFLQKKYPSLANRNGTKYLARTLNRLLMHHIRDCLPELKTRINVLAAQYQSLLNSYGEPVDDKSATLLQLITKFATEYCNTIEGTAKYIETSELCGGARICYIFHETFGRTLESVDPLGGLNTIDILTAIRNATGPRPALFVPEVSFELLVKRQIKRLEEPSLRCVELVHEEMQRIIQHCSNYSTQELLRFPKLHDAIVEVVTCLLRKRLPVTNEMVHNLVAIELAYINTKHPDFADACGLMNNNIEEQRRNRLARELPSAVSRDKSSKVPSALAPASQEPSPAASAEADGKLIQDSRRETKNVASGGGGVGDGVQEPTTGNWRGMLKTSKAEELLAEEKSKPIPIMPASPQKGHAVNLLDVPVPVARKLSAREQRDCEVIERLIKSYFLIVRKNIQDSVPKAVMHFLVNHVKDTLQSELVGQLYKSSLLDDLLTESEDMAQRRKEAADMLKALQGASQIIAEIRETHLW
UniProt Q8NBA8: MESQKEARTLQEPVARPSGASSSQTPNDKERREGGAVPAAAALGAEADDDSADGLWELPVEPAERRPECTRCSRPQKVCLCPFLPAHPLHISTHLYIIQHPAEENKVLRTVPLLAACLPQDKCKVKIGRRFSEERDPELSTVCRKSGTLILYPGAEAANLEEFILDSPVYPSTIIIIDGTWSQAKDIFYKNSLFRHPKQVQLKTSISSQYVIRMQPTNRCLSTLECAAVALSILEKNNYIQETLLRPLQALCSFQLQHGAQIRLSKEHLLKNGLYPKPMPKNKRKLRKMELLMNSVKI
UniProt Q96FX2: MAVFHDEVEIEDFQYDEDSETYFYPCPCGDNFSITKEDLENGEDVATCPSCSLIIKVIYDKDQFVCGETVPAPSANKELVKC
UniProt Q99704: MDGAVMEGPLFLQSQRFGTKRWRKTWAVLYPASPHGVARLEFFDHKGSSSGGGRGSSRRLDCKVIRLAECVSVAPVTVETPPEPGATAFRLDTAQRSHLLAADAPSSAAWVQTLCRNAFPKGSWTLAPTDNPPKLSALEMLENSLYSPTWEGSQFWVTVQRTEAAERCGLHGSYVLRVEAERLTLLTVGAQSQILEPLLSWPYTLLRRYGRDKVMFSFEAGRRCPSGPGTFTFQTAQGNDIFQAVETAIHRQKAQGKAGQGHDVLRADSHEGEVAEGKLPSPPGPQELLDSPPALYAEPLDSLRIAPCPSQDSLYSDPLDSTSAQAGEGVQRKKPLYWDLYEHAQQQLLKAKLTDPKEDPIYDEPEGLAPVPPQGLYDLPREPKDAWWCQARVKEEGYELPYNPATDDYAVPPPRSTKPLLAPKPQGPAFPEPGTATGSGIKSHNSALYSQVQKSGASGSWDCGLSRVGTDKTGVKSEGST
UniProt Q6P3W2: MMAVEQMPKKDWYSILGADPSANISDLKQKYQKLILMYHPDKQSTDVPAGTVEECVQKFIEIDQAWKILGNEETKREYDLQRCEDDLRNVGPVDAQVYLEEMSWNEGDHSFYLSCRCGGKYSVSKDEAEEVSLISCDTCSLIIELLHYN
UniProt Q7RTS9: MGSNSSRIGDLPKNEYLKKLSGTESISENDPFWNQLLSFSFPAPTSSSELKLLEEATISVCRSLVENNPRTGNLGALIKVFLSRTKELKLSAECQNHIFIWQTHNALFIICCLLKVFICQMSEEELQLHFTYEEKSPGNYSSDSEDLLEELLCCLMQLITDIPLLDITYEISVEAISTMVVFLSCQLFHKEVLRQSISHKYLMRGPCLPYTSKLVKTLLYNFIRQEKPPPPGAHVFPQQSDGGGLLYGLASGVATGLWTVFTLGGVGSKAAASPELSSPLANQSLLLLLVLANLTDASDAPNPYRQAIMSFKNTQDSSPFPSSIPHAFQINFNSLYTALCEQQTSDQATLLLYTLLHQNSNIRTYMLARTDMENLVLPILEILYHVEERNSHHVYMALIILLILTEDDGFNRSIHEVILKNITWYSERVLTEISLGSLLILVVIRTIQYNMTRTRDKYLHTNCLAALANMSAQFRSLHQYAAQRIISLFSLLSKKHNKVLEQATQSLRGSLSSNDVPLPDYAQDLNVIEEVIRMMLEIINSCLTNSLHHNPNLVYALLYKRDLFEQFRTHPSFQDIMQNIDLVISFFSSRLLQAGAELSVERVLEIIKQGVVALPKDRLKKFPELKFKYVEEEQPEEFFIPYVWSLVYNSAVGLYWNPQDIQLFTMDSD
UniProt Q13409, whole entry, looked up: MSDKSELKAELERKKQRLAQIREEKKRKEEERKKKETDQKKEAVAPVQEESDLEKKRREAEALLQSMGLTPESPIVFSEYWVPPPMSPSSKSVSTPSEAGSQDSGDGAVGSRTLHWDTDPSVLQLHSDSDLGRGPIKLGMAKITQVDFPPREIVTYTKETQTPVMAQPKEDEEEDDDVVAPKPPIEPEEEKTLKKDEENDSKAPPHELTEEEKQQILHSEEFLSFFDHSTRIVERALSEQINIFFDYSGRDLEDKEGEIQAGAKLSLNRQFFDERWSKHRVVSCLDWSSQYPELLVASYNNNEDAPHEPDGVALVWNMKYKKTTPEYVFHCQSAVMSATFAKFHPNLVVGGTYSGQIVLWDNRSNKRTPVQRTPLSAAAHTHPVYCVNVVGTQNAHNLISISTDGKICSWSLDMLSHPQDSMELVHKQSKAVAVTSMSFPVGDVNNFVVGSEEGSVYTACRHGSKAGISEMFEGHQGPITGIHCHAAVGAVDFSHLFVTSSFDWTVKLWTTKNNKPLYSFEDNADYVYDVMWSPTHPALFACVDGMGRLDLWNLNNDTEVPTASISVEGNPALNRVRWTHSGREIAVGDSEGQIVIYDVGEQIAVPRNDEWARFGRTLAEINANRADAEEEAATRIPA

compound: CCCS(=O)(=O)Nc1ccc(F)c(C(=O)c2c[nH]c3ncc(-c4ccc(Cl)cc4)cc23)c1F [vemurafenib]; test: log2 fold change, soluble protein after heating vs DMSO (PISA); higher = thermal stabilisation; K562 cells, 10 uM, 30 min; active = over 0.2 and 3.5 SD of the protein, either way, in both replicates (recomputed)
Summary of the method: (§1)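 K562 cells (2×10^6 cells/mL) were treated with 10 μM compound for 30 min, and aliquots were heated for 3 min over 48°C-58°C. Pooled aliquots were extracted in PBS with 0.5% NP-40 at 4°C, and the supernatant after 21,000xg for 90 min was measured by TMTpro 16plex LC-MS/MS with channel sums equalised. Reported thermal stability, relative to control samples and from duplicates, is a log2 fold change.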

log2 fold change, inactive:
DOP1B (UniProt Q9Y3R5) -0.139
E2F3 (UniProt O00716) -0.009
ECD isoform 3 (UniProt O95905) 0
DRAM2 (UniProt Q6UX65) -0.107
E4F1 (UniProt Q66K89) 0
EAPP (UniProt Q56P03) 0.182
DNTTIP2 (UniProt Q5QJE6) -0.015
DOCK8 (UniProt Q8NF50) 0.134
DOLPP1 (UniProt Q86YN1) -0.057
DNPEP (UniProt B9ZVU2) 0.045
DSN1 (UniProt Q9H410) 0.133
DTD2 (UniProt Q96FN9) -0.067
DNAJC16 (UniProt Q9Y2G8) 0.042
DYRK1A isoform 2 (UniProt Q13627) -0.021
DYNLT1 (UniProt P63172) 0.007
DNM1L isoform 2 (UniProt O00429) -0.002
DTWD2 (UniProt Q8NBA8) -0.079
DUSP9 (UniProt Q99956) 0.237
DOCK10 (UniProt Q96BY6) 0.107
DONSON (UniProt Q9NYP3) -0.12
DPH3 (UniProt Q96FX2) -0.042
DOK1 (UniProt Q99704) 0.249
DNAJC24 (UniProt Q6P3W2) 0.008
DPYSL2 (UniProt Q16555) -0.056
ECHDC3 (UniProt Q96DC8) -0.22
DNAL1 (UniProt Q4LDG9) 0.013
DYM (UniProt Q7RTS9) -0.011
DNPEP (UniProt C9JBE1) -0.06
DPY19L2 (UniProt Q6NUT2) -0.124
DPCD (UniProt Q9BVM2) 0.099

compound: CCCS(=O)(=O)Nc1ccc(F)c(C(=O)c2c[nH]c3ncc(Cl)cc23)c1F; test: as above
Summary of the method: as §1

log2 fold change, inactive:
DYNC1I2 isoform 2 (UniProt Q13409) 0.018
ECD isoform 3 (UniProt O95905) 0.027
DRAM2 (UniProt Q6UX65) 0.037
E4F1 (UniProt Q66K89) -0.128
EAPP (UniProt Q56P03) -0.018
DNTTIP2 (UniProt Q5QJE6) -0.064
DOLPP1 (UniProt Q86YN1) -0.042
DNPEP (UniProt B9ZVU2) 0.055
DSN1 (UniProt Q9H410) 0.022
DNAJC25 (UniProt Q9H1X3) 0.073
DTD2 (UniProt Q96FN9) -0.169
DNAJC16 (UniProt Q9Y2G8) 0.005
DYRK1A isoform 2 (UniProt Q13627) -0.024
DYNLT1 (UniProt P63172) 0.06
DNM1L isoform 2 (UniProt O00429) -0.105
DTWD2 (UniProt Q8NBA8) 0.043
DPH3 (UniProt Q96FX2) 0
DOK1 (UniProt Q99704) 0.039
DNAJC24 (UniProt Q6P3W2) -0.034
DPYSL2 (UniProt Q16555) -0.002
DYM (UniProt Q7RTS9) 0.015
DNPEP (UniProt C9JBE1) -0.224

compound: CCCc1cc(C)[nH]c(=O)c1CNC(=O)c1cc(-c2ccnc(N3CCN(C)CC3)c2)cc2c1cnn2C(C)C; test: as above
Summary of the method: as §1

log2 fold change, inactive:
DOP1B (UniProt Q9Y3R5) -0.263
E2F3 (UniProt O00716) 0.019
DYNC1I2 isoform 2 (UniProt Q13409) 0.271
ECD isoform 3 (UniProt O95905) -0.063
DRAM2 (UniProt Q6UX65) -0.403
E4F1 (UniProt Q66K89) -0.149
EAPP (UniProt Q56P03) 0.13
DNTTIP2 (UniProt Q5QJE6) -0.1
DOCK8 (UniProt Q8NF50) 0.093
DOLPP1 (UniProt Q86YN1) -0.018
DNPEP (UniProt B9ZVU2) 0.029
DSN1 (UniProt Q9H410) 0.004
DNM2 isoform 4 (UniProt P50570) -0.032
DYRK1A isoform 2 (UniProt Q13627) -0.019
DYNLT1 (UniProt P63172) 0.147
DNM1L isoform 2 (UniProt O00429) 0.001
DTWD2 (UniProt Q8NBA8) -0.006
DOCK10 (UniProt Q96BY6) -0.563
DPH3 (UniProt Q96FX2) 0.001
DOK1 (UniProt Q99704) -0.022
DNAJC24 (UniProt Q6P3W2) 0.027
DPYSL2 (UniProt Q16555) -0.065
ECHDC3 (UniProt Q96DC8) -0.185
DYM (UniProt Q7RTS9) 0.075
DNPEP (UniProt C9JBE1) -0.206
DPY19L2 (UniProt Q6NUT2) 0.046
